The source of these data is PMC10897476, “Pyridylpiperazine efflux pump inhibitor boosts in vivo antibiotic efficacy against K. pneumoniae” (EMBO Molecular Medicine, 2023).

The assay relates to K. pneumoniae ATCC 43816 (WT). Put plainly: Checkerboard assay levofloxacin x EPI, WT strain. It counts as cell-based, Klebsiella pneumoniae. The conditions noted are these: individual replicates, listed as Lev. The procedure:
MIC experiments were carried out according to the CLSI guidelines (CLSI [2023]). Overnight cultures were diluted to an OD600 = 0.001 in CAMHB followed by addition of efflux pump inhibitors (EPIs) at a final concentration of 100 µM. […] Plates were incubated at 37 °C for up to 20 h. Bacterial viability was evaluated using the resazurin microtitre assay (REMA) and measured by fluorescence using a Tecan Spaert multimode plate reader (Ex: 530 nm Em: 590 nm). MICs were defined as the concentration that prevented 90% of resazurin turnover compared to the non-treated bacteria.
Bacterial suspensions, incubation and plate readouts were carried out as described above.

Values joined by “and” are separate entries in the source; they are usually repeats but may differ in a detail not shown here. Identical values can stand only once. Further values from the same series stand in other lists.

Consider `C[C@H]1COc2c(N3CCN(C)CC3)c(F)cc3c(=O)c(C(=O)O)cn1c23` [Levofloxacin], for which the percentage resazurin turnover (Lev 0.24 ng/mL + EPI 0.00 uM) was 118% and 111% and 56% and 82% and 94% and 28%; the percentage resazurin turnover (Lev 0.49 ng/mL + EPI 0.00 uM) was 87% and 92% and 84% and 111% and 103% and 35%; the percentage resazurin turnover (Lev 0.98 ng/mL + EPI 0.00 uM) is 101% and 100% and 102% and 109% and 62%; the percentage resazurin turnover (Lev 1.95 ng/mL + EPI 0.00 uM) was 67% and 114% and 101% and 41%; the percentage resazurin turnover (Lev 3.91 ng/mL + EPI 0.00 uM) is 99% and 110% and 46%; the percentage resazurin turnover (Lev 7.81 ng/mL + EPI 0.00 uM) is 109% and 104% and 79%. In addition, the percentage resazurin turnover runs as follows: (Lev 15.63 ng/mL + EPI 0.00 uM) 102% and 95% and 90%; (Lev 31.25 ng/mL + EPI 0.00 uM) 69% and 59% and 100%; (Lev 62.50 ng/mL + EPI 0.00 uM) -1.23% and -0.588% and -0.101%; (Lev 500.00 ng/mL + EPI 0.00 uM) -1.06% and -0.604% and 0.0687%; (Lev 1000 ng/mL + EPI 0.00 uM) -0.859% and -0.268% and -0.0599%.
